Patent publication US12370166B2, “Pentadecanoylcarnitine for treatment of conditions related to the quality of aging and longevity” (EPITRACKER, INC., priority 2021, dated 2025)

Experiment: Modified fish diet study: serum metabolome, random forest ranking of biochemicals
Assay type: in vivo, Bottlenose dolphins (Tursiops truncatus)
Conditions: Month 1, Month 3 and Month 6, p<0.0001

CCCCCCCCCCCCCCC(=O)O [Pentadecanoic acid (C15:0), Pentadecanoic acid]
Serum concentration, case versus control groups: higher

CCCCCCCCCCCCCCC(=O)O[C@H](CC(=O)[O-])C[N+](C)(C)C [Pentadecanoylcarnitine, pentadecanoylcarnitine]
Serum concentration, case versus control groups: higher
